Laboratory results reported in US20070122380A1 (UNIVERSITY OF CONNECTICUT, published 2007).
Results are given in words; binding and its absence hold for the method and conditions named. Some results given as binding are weak or reduced against the parent protein; the word gives no strength.

Chains of the proteins cited; added tags and fusions are not shown. Residues count along the entry.
UniProt Q08048, residues 496-728: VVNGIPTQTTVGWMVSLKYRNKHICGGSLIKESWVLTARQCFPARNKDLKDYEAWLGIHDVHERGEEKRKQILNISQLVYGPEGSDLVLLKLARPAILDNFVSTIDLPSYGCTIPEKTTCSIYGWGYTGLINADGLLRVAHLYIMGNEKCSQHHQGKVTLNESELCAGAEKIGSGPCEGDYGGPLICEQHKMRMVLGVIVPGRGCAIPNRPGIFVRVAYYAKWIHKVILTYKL

B1: recombinant IL-7 (ligand)
chain: ECHIKDKEGKAYESVLMISIDELDKMTGTDSNCPNNEPNFFRKHVCDDTKEAAFLNRAARKLKQFLKMNISEEFNVHLLTVSQGTQTLVNCTSKEEKNVKEQKKNDACFLKRLLREIKTCWNKILKGSI
B2: native IL-7 (from pre-B CM) (ligand)
chain: B1 chain

Columns and labels:
[1] = substrate: PPBSF cofactor (native, 30 kD non-IL-7 component of PPBSF) (mouse) (UniProt Q08048); assay: complex formation in IL-7 KO conditioned medium, Western immunoblot with anti-IL-7 mAb (FIG. 8)
[2] = substrate: PPBSF cofactor (native, 30 kD non-IL-7 component of PPBSF) (mouse) (UniProt Q08048); assay: complex formation on mixing conditioned media, Western immunoblot with anti-IL-7 mAb (FIG. 9)

Binder	binding [1]	binding [2]
B1	binds	–
B2	–	binds
